# Measured values published in PubChem BioAssay AID493014 (National Center for Advancing Translational Sciences (NCATS), 2011).
# About 170 (0.05%) of roughly 340,000 compounds were called active. The shares of active, inactive and inconclusive entries below differ from those in the screen. Calls come from the whole dose curve; as a rule, active = well fitted inhibition curve with a large enough effect in the signal ratio, with a control signal flat (not every such curve was filed as active); inconclusive = small, poorly fitted or top-dose-only effect, or effect the other way, or a change in a side signal; inactive = flat fitted curve, though single readings scatter; the % refers to the signal ratio. Potencies beside an inconclusive call are fits to weak or partial responses and may not hold up.
# Test: qHTS Assay to Find Inhibitors of Chronic Active B-Cell Receptor Signaling;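 for activity change, negative = inhibition: plate controls were basal doxycycline-induced cells for no effect and cells given 10 µM MG132 for full effect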
# Settings: ABC-DLBCL IkBa-CBG/CBR reporter, luminescence ratio (green luciferase fused to IkBa over red control in TMD8 lymphoma cells), 4 h; activity change, negative = inhibition: at 46.1 µM (top of the series)
# Method in brief: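 Compounds up to 46 uM were incubated four hours with TMD8 cells whose green CBG68 luciferase is fused to IkappaBalpha; red CBR luminescence normalised the signal, and concentration-effect curves were fitted to fusion, red and ratio data.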
# Potency is the fitted concentration of half-maximal effect.
SMILES,"activity change, negative = inhibition",Potency
CCOc1ccc(N(CC(=O)Nc2ccc(OC)cc2)S(=O)(=O)c2c(C)[nH]c(=O)[nH]c2=O)cc1,inactive,
NNC(=O)c1c(O)c2cccc3c2n(c1=O)CCC3,inactive,
COC(=O)C1=CN(c2cccc(C)c2)C=C(C(=O)OC)C1c1cc(OC)c(O)c([N+](=O)[O-])c1,inconclusive: 6.27%,
O=C(c1cc(-c2ccccc2)n[nH]1)N1CCc2c([nH]c3ccccc23)C1c1ccccn1 (stereo not drawn),inconclusive: 0.296%,
FC(F)(F)c1nnc(-c2ccccc2)nc1N1CCCC1,inactive,
CCC1Oc2ccc(C)cc2N(CC(=O)N2CCCC2)C1=O (stereo not drawn),inactive,
Clc1cccc(/C=N/Nc2nc(Cl)nc3ccccc23)c1,,"inconclusive: 35.5 µM [falling, single point]"
Cc1nc(N2CCN(c3ccccn3)CC2)c2c(C)c(C(=O)Nc3ccc(F)cc3Cl)sc2n1,inactive,
CCOc1cc(NC(=S)NCC2CCCO2)c(OCC)cc1NC(=O)c1ccc(F)cc1 (stereo not drawn),,"inconclusive: 14.1 µM [falling, partial curve, poor fit]"
O=C(/C=C/c1ccc(Br)cc1)c1ccco1,inconclusive: -19.4%,
CC(O)c1cccc(N=Cc2ccc3ccccc3c2O)c1 (stereo not drawn),inactive,
CC(=O)Nc1oc(-c2cccc3ccccc23)nc1C#N,inconclusive: 8.8%,
Cc1cc(NS(=O)(=O)c2ccc(NC(=S)NC(=O)/C=C/c3ccccc3)cc2)no1,inconclusive: 1.62%,
Cc1c(C(=O)NCc2ccccc2F)oc2ccccc12,inconclusive: 1.75%,
C=CCN1C(=O)CS/C1=C(\C#N)S(=O)(=O)c1ccc(C)cc1,,"inconclusive: 5.17 µM [rising, partial curve, poor fit]"
COc1ccccc1NC(=O)c1cccc(S(=O)(=O)N2CCN(Cc3ccccc3)CC2)c1,inconclusive: -6.9%,
CCOC(=O)c1cc(C#N)c(N2CCN(c3ccccn3)CC2)nc1-c1ccccc1,inactive,
COCCNC(=O)/C(C#N)=C/c1c(N2CCCCCC2)nc2c(C)cccn2c1=O,inconclusive: 1.27%,
S=C(NCCc1ccc(Cl)cc1)NC1CCCCC1,inconclusive: -5.41%,
Cc1cc(C)c(NC(=O)CNC(=O)COC(=O)CN2C(=O)NC3(CCCC3)C2=O)c(C)c1,inconclusive: 15.1%,
CCNC(=O)C1CC(=O)N(Cc2ccc3c(c2)OCO3)C(=Nc2ccc(OCC)cc2)S1 (stereo not drawn),inconclusive: 0.105%,
Cc1c(C(=O)NCCc2ccc(Cl)cc2)sc2nc3n(c(=O)c12)CCC3,inactive,
COCCCn1c(=S)[nH]c2ncccc2c1=O,inactive,
Cc1ccc(S(=O)(=O)NCc2ccc(C(=O)NC3CCCCC3)cc2)cc1,inconclusive: 2.16%,
CCCCCCn1c(=O)c(F)cn(Cc2ccc(OC)c([N+](=O)[O-])c2)c1=O,inconclusive: -8.48%,
C[n+]1ccc(/C=C/c2ccccc2O)c2ccccc21,inconclusive: 4.43%,
CS(=O)(=O)Nc1ccc(C2=NN(C(=O)c3ccco3)C(c3ccccc3F)C2)cc1 (stereo not drawn),,"inconclusive: 35.5 µM [falling, single point]"

SMILES,"activity change, negative = inhibition",Potency
COc1ccc(CC(=O)n2[nH]c(=O)cc(C)c2=O)cc1OC,,"inconclusive: 17.8 µM [falling, single point]"
O=C(CNC(=S)N(Cc1ccccc1Cl)C1CCCC1)NCCCN1CCOCC1,inconclusive: -1.9%,
COc1ccc(Br)cc1CN(C)CC(=O)Nc1cc(Cl)ccc1Cl,inactive,
Cc1ccc(NC(=O)CCNC(=O)c2ccc(Cl)cc2)nc1,inconclusive: -2.97%,
O=C1CC(SC(=Nc2ccccc2)Nc2ccccc2)C(=O)N1c1ccc(Cl)c(Cl)c1 (stereo not drawn),inconclusive: -1.85%,
O=C(CCNC(=O)N1CC(=O)Nc2ccccc21)NCc1cccc(Cl)c1,inconclusive: 0.675%,
COc1cc(/C=C2/C(=O)ON=C2C)cc(Cl)c1O,inconclusive: 5.56%,
CCCc1cc(=O)[nH]c(NCCc2ccccc2)n1,inconclusive: 4.84%,
CCOc1ccc(-c2nc(CSCC(=O)N3CCN(c4cccc(OC)c4)CC3)c(C)o2)cc1,,"inconclusive: 15.8 µM [falling, partial curve]"
CCOC(=O)c1c(NC(=O)c2nn(CC)cc2Br)c(C#N)nn1-c1ccccc1,,"inconclusive: 16.4 µM [rising, partial curve, poor fit]"
Cc1nnc(SCC(=O)Nc2nc(-c3ccc(F)cc3)cs2)[nH]c1=O,inconclusive: -3.44%,
CC(=O)N1CCN(CC(=O)NC(=O)Nc2ccc3c(c2)OCCO3)CC1,inconclusive: -17.7%,
CCOC(=O)c1cnc2c(N=Nc3ccccc3)c(N)nn2c1N,,"inconclusive: 2.82 µM [falling, partial curve, poor fit]"
O=C(O)C1CCN(C(=O)c2ccccc2Cl)CC1,,"inconclusive: 29.1 µM [falling, single point]"
CC(C)(C)c1ccc2c(c1)OC(C(=O)N/N=C\c1ccncc1)CO2 (stereo not drawn),inactive,
Cc1cnn(-c2ccc3nnc(-c4ccc(Cl)cc4)n3n2)c1,,"inconclusive: 0.562 µM [falling, full curve, poor fit]"
Nc1nnc(SCC(=O)c2cccc([N+](=O)[O-])c2)s1,inconclusive: 12.4%,
CCC(CC)c1nnc(NC(=O)c2ccc([N+](=O)[O-])cc2)s1,inconclusive: 1.5%,
CN(Cc1ccc(Cl)c(Cl)c1)C(=O)c1ccccc1SCC(=O)N1CCCC1,inactive,
Cc1cc(C)c(S(=O)(=O)c2ccccc2)c(Cl)n1,inactive,
Cc1ccc(NC(=S)NC(=O)c2sc3ccccc3c2Cl)c(C(=O)O)c1,inconclusive: -8.74%,
Cc1ccnc(N2C3CCC2CC(O)(c2ccccc2)C3)n1 (stereo not drawn),inconclusive: 1.31%,
S=C1SCN(Cc2ccccn2)CN1Cc1ccco1,inconclusive: -0.208%,
CCCC(=O)Nc1nnc(-c2ccc(Cl)s2)o1,,"inconclusive: 29.1 µM [falling, single point]"
COC(=O)c1nnn(-c2ccccc2)c1N,,"inconclusive: 4.61 µM [falling, full curve, poor fit]"
Cn1sccc1=O,inactive,

# Pulled one by one from the entries so far:
SMILES,"activity change, negative = inhibition",Potency
Nc1nnc(SCC(=O)c2cccc([N+](=O)[O-])c2)s1,inconclusive: 12.4%,
CCOC(=O)c1cnc2c(N=Nc3ccccc3)c(N)nn2c1N,,"inconclusive: 2.82 µM [falling, partial curve, poor fit]"
CCCC(=O)Nc1nnc(-c2ccc(Cl)s2)o1,,"inconclusive: 29.1 µM [falling, single point]"
